Source: ChEMBL document CHEMBL1137651 (Antimicrob Agents Chemother, 2007)
In brackets after ≈: the same amount, converted by molar mass.

System: Mycobacterium tuberculosis
Experiment: microbe, parasite or virus in culture
Settings: H37Rv ATCC 2517

In the case of `CO[C@H]1/C=C/O[C@@]2(C)Oc3c(C)c(O)c4c(O)c(c(/C=N/N5CCN(C)CC5)c(O)c4c3C2=O)NC(=O)/C(C)=C\C=C\[C@H](C)[C@H](O)[C@@H](C)[C@@H](O)[C@@H](C)[C@H](OC(C)=O)[C@@H]1C` [RIFAMPIN], the MIC is reported as 0.03 µg/mL (≈ 0.0365 µM).
